# Experimental data published in the supplement of paper PMC8728848.
# Some of the results follow.
# B1: AT3G09350(27) (Arabidopsis thaliana), Q84J81 (protein)
# chain: MAKDGPNWDGLLKWSLSHADGTRPTRQLSEEDRKWFMEAMQSQTVDVVKRMKEITLVMQTPEQVLVEHGVTPEDIQDLLDELQEHVESIDMANDLHSIGGLVPLLSFLKNSHANIRAKAADVVSTIVQNNPRSQELVMETNALESLLSNFTSDTDIHARTQALGAISSLIRHNKPGVTAFKLANGYAGLRDALASDSVRFQRKALNLLQYLLQEDDSDRSIATGLGFPRVMMHLASSDDAEIREAALRGLLELSREKNDGSSSIDKSDEKLRQLLEERIKGITLMSQEDLETVKEERQLVDLLWSICYNEPSSLREKGLVVLPGEDALPPDVASKLFEPPLRASAANRNATEKKDEPMKLLGP
# Key:
# Experiment in all cases: glycan array binding signal (z-score within array); higher = stronger binding
# Settings in all cases: glycan notation: IUPAC condensed, linker removed
# [1] = target: Neu5Ac(a2-3)Gal(b1-3)GlcNAc6S
# Summary of the method: (§1)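 The binding signal is a Z-score computed within each array. Data were drawn from 3228 arrays in the Consortium for Functional Glycomics database, restricted to those with a known protein sequence. Scores were averaged over arrays of the same protein sequence at different concentrations or buffers, and over linkers, and negative values can be taken as non-binding.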
# [2] = target: Neu5Ac(a2-3)Gal(b1-3)[Fuc(a1-4)]GlcNAc
# Summary of the method: as §1
# [3] = target: Neu5Ac(a2-3)Gal(b1-3)[Fuc(a1-4)]GlcNAc(b1-3)Gal(b1-3)[Fuc(a1-4)]GlcNAc
# Summary of the method: as §1
# [4] = target: Neu5Ac(a2-3)Gal(b1-3)[Fuc(a1-4)]GlcNAc(b1-3)Gal(b1-4)[Fuc(a1-3)]GlcNAc
# Summary of the method: as §1
# [5] = target: Neu5Ac(a2-3)Gal(b1-3)[GlcNAc(b1-6)]GalNAc
# Summary of the method: as §1
# [6] = target: Neu5Ac(a2-3)Gal(b1-3)[Neu5Ac(a2-6)]GalNAc
# Summary of the method: as §1
# [7] = target: Neu5Ac(a2-3)Gal(b1-3)[Neu5Ac(a2-6)]GlcNAc(b1-3)[Fuc(a1-3)[Gal(b1-4)]GlcNAc(b1-6)]Gal(b1-4)Glc
# Summary of the method: as §1
# [8] = target: Neu5Ac(a2-3)Gal(b1-3)]Neu5Ac(a2-3)Gal(b1-4)]GlcNAc
# Summary of the method: as §1
# Neu5Ac(a2-3)Gal(b1-4)Glc = target: Neu5Ac(a2-3)Gal(b1-4)Glc
# Summary of the method: as §1
# [9] = target: Neu5Ac(a2-3)Gal(b1-4)GlcNAc
# Summary of the method: as §1
# [10] = target: Neu5Ac(a2-3)Gal(b1-4)GlcNAc(b1-2)Man
# Summary of the method: as §1
# [11] = target: Neu5Ac(a2-3)Gal(b1-4)GlcNAc(b1-2)Man(a1-3)[GlcNAc(b1-4)][Neu5Ac(a2-3)Gal(b1-4)GlcNAc(b1-2)Man(a1-6)]Man(b1-4)GlcNAc(b1-4)GlcNAc
# Summary of the method: as §1
# [12] = target: Neu5Ac(a2-3)Gal(b1-4)GlcNAc(b1-2)Man(a1-3)[Neu5Ac(a2-3)Gal(b1-4)GlcNAc(b1-2)Man(a1-6)]Man(b1-4)GlcNAc(b1-4)GlcNAc
# Summary of the method: as §1
# [13] = target: Neu5Ac(a2-3)Gal(b1-4)GlcNAc(b1-2)Man(a1-3)[Neu5Ac(a2-3)Gal(b1-4)GlcNAc(b1-2)Man(a1-6)]Man(b1-4)GlcNAc(b1-4)[Fuc(a1-6)]GlcNAc
# Summary of the method: as §1
# [14] = target: Neu5Ac(a2-3)Gal(b1-4)GlcNAc(b1-2)Man(a1-3)[Neu5Ac(a2-6)Gal(b1-4)GlcNAc(b1-2)Man(a1-6)]Man(b1-4)GlcNAc(b1-4)GlcNAc
# Summary of the method: as §1
# [15] = target: Neu5Ac(a2-3)Gal(b1-4)GlcNAc(b1-2)[Neu5Ac(a2-3)Gal(b1-4)GlcNAc(b1-4)]Man(a1-3)[GlcNAc(b1-4)][Neu5Ac(a2-3)Gal(b1-4)GlcNAc(b1-2)[Neu5Ac(a2-3)Gal(b1-4)GlcNAc(b1-6)]Man(a1-6)]Man(b1-4)GlcNAc(b1-4)GlcNAc
# Summary of the method: as §1
# [16] = target: Neu5Ac(a2-3)Gal(b1-4)GlcNAc(b1-2)[Neu5Ac(a2-3)Gal(b1-4)GlcNAc(b1-4)]Man(a1-3)[GlcNAc(b1-4)][Neu5Ac(a2-3)Gal(b1-4)GlcNAc(b1-4)Man(a1-6)]Man(b1-4)GlcNAc(b1-4)GlcNAc
# Summary of the method: as §1
# [17] = target: Neu5Ac(a2-3)Gal(b1-4)GlcNAc(b1-2)[Neu5Ac(a2-3)Gal(b1-4)GlcNAc(b1-6)]Man(a1-6)[Neu5Ac(a2-3)Gal(b1-4)GlcNAc(b1-2)Man(a1-3)]Man(b1-4)GlcNAc(b1-4)GlcNAc
# Summary of the method: as §1
# [18] = target: Neu5Ac(a2-3)Gal(b1-4)GlcNAc(b1-2)[Neu5Ac(a2-3)Gal(b1-4)GlcNAc(b1-6)]Man(a1-6)[Neu5Ac(a2-3)Gal(b1-4)GlcNAc(b1-2)Man(a1-3)][GlcNAc(b1-4)]Man(b1-4)GlcNAc(b1-4)GlcNAc
# Summary of the method: as §1
# [19] = target: Neu5Ac(a2-3)Gal(b1-4)GlcNAc(b1-3)Gal
# Summary of the method: as §1
# [20] = target: Neu5Ac(a2-3)Gal(b1-4)GlcNAc(b1-3)Gal(b1-3)GlcNAc
# Summary of the method: as §1
# [21] = target: Neu5Ac(a2-3)Gal(b1-4)GlcNAc(b1-3)Gal(b1-4)GlcNAc
# Summary of the method: as §1
# [22] = target: Neu5Ac(a2-3)Gal(b1-4)GlcNAc(b1-3)Gal(b1-4)GlcNAc(b1-2)Man(a1-3)[Neu5Ac(a2-3)Gal(b1-4)GlcNAc(b1-3)Gal(b1-4)GlcNAc(b1-2)Man(a1-6)]Man(b1-4)GlcNAc(b1-4)GlcNAc
# Summary of the method: as §1
# [23] = target: Neu5Ac(a2-3)Gal(b1-4)GlcNAc(b1-3)Gal(b1-4)GlcNAc(b1-3)Gal(b1-4)GlcNAc
# Summary of the method: as §1
# [24] = target: Neu5Ac(a2-3)Gal(b1-4)GlcNAc(b1-3)Gal(b1-4)GlcNAc(b1-3)Gal(b1-4)GlcNAc(b1-2)Man(a1-3)[Neu5Ac(a2-3)Gal(b1-4)GlcNAc(b1-3)Gal(b1-4)GlcNAc(b1-3)Gal(b1-4)GlcNAc(b1-2)Man(a1-6)]GalNAc
# Summary of the method: as §1
# [25] = target: Neu5Ac(a2-3)Gal(b1-4)GlcNAc(b1-3)Gal(b1-4)GlcNAc(b1-3)GalNAc
# Summary of the method: as §1
# [26] = target: Neu5Ac(a2-3)Gal(b1-4)GlcNAc(b1-3)Gal(b1-4)GlcNAc(b1-3)[Neu5Ac(a2-3)Gal(b1-4)GlcNAc(b1-3)Gal(b1-4)GlcNAc(b1-6)]GalNAc
# Summary of the method: as §1
# [27] = target: Neu5Ac(a2-3)Gal(b1-4)GlcNAc(b1-3)Gal(b1-4)GlcNAc(b1-6)[Gal(b1-3)]GalNAc
# Summary of the method: as §1
# [28] = target: Neu5Ac(a2-3)Gal(b1-4)GlcNAc(b1-3)Gal(b1-4)[Fuc(a1-3)]GlcNAc
# Summary of the method: as §1
# [29] = target: Neu5Ac(a2-3)Gal(b1-4)GlcNAc(b1-3)GalNAc
# Summary of the method: as §1
# [30] = target: Neu5Ac(a2-3)Gal(b1-4)GlcNAc(b1-3)[Neu5Ac(a2-3)Gal(b1-4)GlcNAc(b1-6)]GalNAc
# Summary of the method: as §1
# [31] = target: Neu5Ac(a2-3)Gal(b1-4)GlcNAc(b1-6)GalNAc
# Summary of the method: as §1
# [32] = target: Neu5Ac(a2-3)Gal(b1-4)GlcNAc(b1-6)[Gal(b1-3)]GalNAc
# Summary of the method: as §1
# [33] = target: Neu5Ac(a2-3)Gal(b1-4)GlcNAc(b1-6)[Neu5Ac(a2-3)Gal(b1-3)]GalNAc
# Summary of the method: as §1
# [34] = target: Neu5Ac(a2-3)Gal(b1-4)GlcNAc6S
# Summary of the method: as §1
# [35] = target: Neu5Ac(a2-3)Gal(b1-4)[Fuc(a1-3)]GlcNAc
# Summary of the method: as §1
# [36] = target: Neu5Ac(a2-3)Gal(b1-4)[Fuc(a1-3)]GlcNAc(b1-2)Man
# Summary of the method: as §1
# [37] = target: Neu5Ac(a2-3)Gal(b1-4)[Fuc(a1-3)]GlcNAc(b1-3)Gal
# Summary of the method: as §1
# [38] = target: Neu5Ac(a2-3)Gal(b1-4)[Fuc(a1-3)]GlcNAc(b1-3)Gal(b1-4)GlcNAc
# Summary of the method: as §1
# [39] = target: Neu5Ac(a2-3)Gal(b1-4)[Fuc(a1-3)]GlcNAc(b1-3)Gal(b1-4)[Fuc(a1-3)]GlcNAc(b1-3)Gal(b1-4)[Fuc(a1-3)]GlcNAc
# Summary of the method: as §1
# [40] = target: Neu5Ac(a2-3)Gal(b1-4)[Fuc(a1-3)]GlcNAc(b1-3)GalNAc
# Summary of the method: as §1
# [41] = target: Neu5Ac(a2-3)Gal(b1-4)[Fuc(a1-3)]GlcNAc(b1-6)[Gal(b1-3)]GalNAc
# Summary of the method: as §1
# [42] = target: Neu5Ac(a2-3)Gal(b1-4)[Fuc(a1-3)]GlcNAc(b1-6)[Neu5Ac(a2-3)Gal(b1-3)]GalNAc
# Summary of the method: as §1
# [43] = target: Neu5Ac(a2-3)Gal(b1-4)[Fuc(a1-3)]GlcNAc6S
# Summary of the method: as §1
# [44] = target: Neu5Ac(a2-3)Gal6S(b1-4)GlcNAc
# Summary of the method: as §1
binder,measurement,setting,value
B1,glycan array binding signal (z-score),[1],-0.472
same,glycan array binding signal (z-score),[2],-0.897
same,glycan array binding signal (z-score),[3],-0.449
same,glycan array binding signal (z-score),[4],0.414
same,glycan array binding signal (z-score),[5],0.624
same,glycan array binding signal (z-score),[6],-0.317
same,glycan array binding signal (z-score),[7],0.102
same,glycan array binding signal (z-score),[8],-0.42
same,glycan array binding signal (z-score),Neu5Ac(a2-3)Gal(b1-4)Glc,0.222
same,glycan array binding signal (z-score),[9],0.003
same,glycan array binding signal (z-score),[10],0.291
same,glycan array binding signal (z-score),[11],-1.05
same,glycan array binding signal (z-score),[12],-0.557
same,glycan array binding signal (z-score),[13],0.697
same,glycan array binding signal (z-score),[14],-0.666
same,glycan array binding signal (z-score),[15],-0.295
same,glycan array binding signal (z-score),[16],-0.559
same,glycan array binding signal (z-score),[17],-0.269
same,glycan array binding signal (z-score),[18],-0.435
same,glycan array binding signal (z-score),[19],-0.392
same,glycan array binding signal (z-score),[20],0.404
same,glycan array binding signal (z-score),[21],-0.174
same,glycan array binding signal (z-score),[22],0.182
same,glycan array binding signal (z-score),[23],0.446
same,glycan array binding signal (z-score),[24],-0.504
same,glycan array binding signal (z-score),[25],-0.044
same,glycan array binding signal (z-score),[26],0.565
same,glycan array binding signal (z-score),[27],0.129
same,glycan array binding signal (z-score),[28],-0.305
same,glycan array binding signal (z-score),[29],-0.33
same,glycan array binding signal (z-score),[30],0.337
same,glycan array binding signal (z-score),[31],0.199
same,glycan array binding signal (z-score),[32],-0.389
same,glycan array binding signal (z-score),[33],0.266
same,glycan array binding signal (z-score),[34],-0.396
same,glycan array binding signal (z-score),[35],-0.076
same,glycan array binding signal (z-score),[36],-0.529
same,glycan array binding signal (z-score),[37],-1.03
same,glycan array binding signal (z-score),[38],1.26
same,glycan array binding signal (z-score),[39],-0.102
same,glycan array binding signal (z-score),[40],0.686
same,glycan array binding signal (z-score),[41],0.052
same,glycan array binding signal (z-score),[42],0.415
same,glycan array binding signal (z-score),[43],-0.787
same,glycan array binding signal (z-score),[44],-0.068

# Rewritten tab-delimited: part of the list above.
binder	measurement	setting	value
B1	glycan array binding signal (z-score)	[19]	-0.392
same	glycan array binding signal (z-score)	[32]	-0.389
